Structures can show the parent of a compound that is named as a salt. The list shows a part of the results. This data set is noisy: repeats of one test often differ as much as different tests do.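 In a drug-repurposing library screen, luminescence reads luciferase driven by eight TEAD-binding elements, stably integrated into human kidney-derived cells. Compounds scoring over five robust Z scores above the plate mean are called hits.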
Tested on: HEK293A TEAD-LUC reporter
Assay: TEAD-luciferase reporter activity (YAP activation), robust Z score vs plate; higher = stronger YAP/TEAD activation
Details: 24 h

SMILES | TEAD-luciferase reporter activity (compound concentration: 200 nM) | TEAD-luciferase reporter activity (compound concentration: 2 uM) | TEAD-luciferase reporter activity (compound concentration: 10 uM)
c1ccc(C(CCN2CCCCCC2)c2ccccc2)cc1 | inactive: -0.999 | inactive: -1.8 | inactive: 3.09
CC(C)=CCOc1cc(NC(=S)c2ccncc2)ccc1Cl | inactive: 2.08 | inactive: -0.506 | inactive: 1.38
C=CC(=O)N1CCC(Oc2cc3c(Nc4ccc(Cl)c(Cl)c4F)ncnc3cc2OC)CC1 [Poziotinib] | inactive: -0.173 | inactive: -2.59 | inactive: -3.23
O=C(O)c1ccc(CN2CCC(CN[C@@H]3C[C@H]3c3ccccc3)CC2)cc1 | inactive: -0.602 | inactive: -1.63 | inactive: 0.633
O=C(NCC12CC3CC(CC(C3)C1)C2)c1cc(CCCNCCCO)ccc1Cl | inactive: -1.72 | inactive: 1.63 | inactive: 0.503
COc1ccc(-c2ccc3ncc4c(c3c2)n(-c2ccc(N3CCNCC3)c(C(F)(F)F)c2)c(=O)n4C)cn1 | inactive: -2.42 | inactive: -1.12 | active: 7.7
O=C(O)CCC(CCCCNS(=O)(=O)c1ccc(Cl)cc1)CCCc1cccnc1 (stereo not drawn) | inactive: -2.43 | inactive: -0.792 | inactive: -1.3
CCCOc1ccc(C(=O)CCN2CCCCC2)cc1 |  | inactive: -0.317 | 
CCCOc1ccc(C(=O)CCN2CCCCC2)cc1 [Propipocaine] | inactive: 0.44 |  | inactive: -0.501
CCOC(=O)N1CCC(=C2c3ccc(Cl)cc3CCc3cccnc32)CC1 | inactive: -0.889 |  | inactive: 1.91
CCOC(=O)N1CCC(=C2c3ccc(Cl)cc3CCc3cccnc32)CC1 [loratadine] |  | inactive: -0.472 | 
CCC(=O)OCC(=O)[C@@]1(OC(=O)CC)[C@@H](C)C[C@H]2[C@@H]3CCC4=CC(=O)C=CC4(C)[C@@]3(Cl)[C@@H](O)CC21C (stereo partly drawn) [Beclometasone] | active: 8.69 | inactive: 0.213 | inactive: 2.24
COc1ccc(CCNCC(O)COc2ccc(/C(C)=C/C#N)cc2)cc1OC (stereo not drawn) | inactive: -1.01 | inactive: -0.634 | inactive: 1.58
CC(=O)Nc1ncc([N+](=O)[O-])s1 | inactive: -1 | inactive: -2.42 | inactive: 3.15
O=C(O)c1cn(-c2ccc(F)cc2)c2nc(N3CCNCC3)c(F)cc2c1=O | inactive: -0.826 | inactive: -0.749 | inactive: 1.54
O=C(O)c1ccc2nn[nH]c2c1 | inactive: -2.84 | inactive: 3.76 | inactive: 3.56
CC(C)(C)c1cc(C(C)(C)C)c(NC(=O)c2cnc3ccccc3c2O)cc1O [Ivacaftor] | inactive: -0.348 | inactive: -0.874 | inactive: 0.587
Cc1ccc(S(=O)(=O)NCl)cc1 | inactive: -1.63 | inactive: -1.37 | inactive: -0.355
CC1(C)CCC(C)(C)c2cc(C(=O)Nc3ccc(C(=O)O)cc3)ccc21 | inactive: -0.902 | inactive: -0.127 | inactive: 0.342
CCCC1C(=O)N2C(N(C)C)=Nc3ccc(C)cc3N2C1=O (stereo not drawn) [azapropazone] | inactive: 0.271 | inactive: -0.511 | inactive: -1.32

SMILES | TEAD-luciferase reporter activity (compound concentration: 200 nM) | TEAD-luciferase reporter activity (compound concentration: 2 uM) | TEAD-luciferase reporter activity (compound concentration: 10 uM)
O=C1NCc2ccccc2CC12CCCCN2Cc1ccccc1 (stereo not drawn) | inactive: 3.21 |  | inactive: 0.297
Cc1ccc2c(c1)CC1(CC2)CNC=N1 (stereo not drawn) | inactive: -0.743 | inactive: -1.25 | inactive: 2.24
CC(Oc1c(Cl)cccc1Cl)C1=NCCN1 (stereo not drawn) | inactive: -0.257 | inactive: -1.42 | active: 5.22
C[C@@H](O)C(=N)NS(=O)(=O)c1cc(C(=O)C(C(=O)c2cc(F)ccc2F)=C2N=c3ccccc3=N2)ccc1F | inactive: -0.234 | inactive: -1.64 | inactive: -0.715
CCCCCCCCCCCCCCCCCC[S+](CCC)c1ccccc1C(=O)OCC (stereo not drawn) | inactive: -1.1 | inactive: 0.182 | inactive: 2.29
CCCCCCCC/C=C\CCCCCCCC(=O)NCc1ccc(O)c(OC)c1 [Olvanil] | inactive: -0.286 | inactive: -0.393 | inactive: 0.96
Cn1c(=O)cc(N2CCC[C@@H](N)C2)n(Cc2ccccc2C#N)c1=O [Alogliptin] | inactive: -1.51 |  | inactive: 0.416
Cn1c(=O)cc(N2CCC[C@@H](N)C2)n(Cc2ccccc2C#N)c1=O [alogliptin benzoate] |  | inactive: 0.0471 | 
CC(=O)N[C@@H](Cc1ccc(OP(=O)(O)O)cc1)C(=O)N[C@@H](C)c1ccc(OCC2CCCCC2)c(C(N)=O)c1 | inactive: -1.81 | inactive: -1.08 | inactive: -1.3
COc1ccc2c(c1)[C@]1(C[C@H]1c1ccc3c(/C=C/c4ccc(CN5C[C@@H](C)O[C@@H](C)C5)cc4)n[nH]c3c1)C(=O)N2 | inactive: -0.834 | inactive: 0.089 | inactive: 2.27
CCCc1nc2c(C)cc(-c3nc4ccccc4n3C)cc2n1Cc1ccc(-c2ccccc2C(=O)O)cc1 | inactive: 1.06 |  | inactive: -2.21
CCCc1nc2c(C)cc(-c3nc4ccccc4n3C)cc2n1Cc1ccc(-c2ccccc2C(=O)O)cc1 [Telmisartan] |  | inactive: -1.36 | 
Cc1cc(OCCN2CCOCC2)nn1-c1ccc2ccccc2c1 | inactive: 0.276 | inactive: -0.519 | inactive: -1.14
CN(Cc1ccc(F)cc1)CC1CCCCC1 | inactive: -2.87 |  | inactive: -0.43
NC1C(O)OC(CO)C(O)C1O (stereo not drawn) [Glucosamine sulfate] | inactive: -1.13 | inactive: -0.061 | inactive: 0.403
O=C1NCNC1(c1ccccc1)c1ccccc1 [Doxenitoin] | inactive: -0.426 | inactive: -0.594 | inactive: -1.38
CC1CCC2(OC1)OC1CC3C4CC(O)C5CC(O)CCC5(C)C4CCC3(C)C1C2C (stereo not drawn) | inactive: -1.19 | inactive: -1.74 | inactive: 1.54
O=C(O)C1(C(=O)O)CCC1 [Dicycloplatin] | inactive: -0.884 |  | inactive: 0.796
O=C(O)C1(C(=O)O)CCC1 [1,1-Cyclobutanedicarboxylic Acid] |  | inactive: -2.26 | 
CCC[C@@H]1O[C@@H]2C[C@H]3[C@@H]4C[C@H](F)C5=CC(=O)CC[C@]5(C)[C@@]4(F)[C@@H](O)C[C@]3(C)[C@]2(C(=O)S[C@H]2CCOC2=O)O1 | inactive: 0.359 | inactive: 1.06 | inactive: 1.63

Single entries from the results shown:
Entry for CCCCCCCC/C=C\CCCCCCCC(=O)NCc1ccc(O)c(OC)c1 [Olvanil] under TEAD-luciferase reporter activity (compound concentration: 10 uM): inactive: 0.96
Entry for CC1CCC2(OC1)OC1CC3C4CC(O)C5CC(O)CCC5(C)C4CCC3(C)C1C2C (stereo not drawn) under TEAD-luciferase reporter activity (compound concentration: 200 nM): inactive: -1.19
Entry for CCCc1nc2c(C)cc(-c3nc4ccccc4n3C)cc2n1Cc1ccc(-c2ccccc2C(=O)O)cc1 [Telmisartan] under TEAD-luciferase reporter activity (compound concentration: 2 uM): inactive: -1.36

Following part:

SMILES | TEAD-luciferase reporter activity (compound concentration: 200 nM) | TEAD-luciferase reporter activity (compound concentration: 2 uM) | TEAD-luciferase reporter activity (compound concentration: 10 uM)
CC1(C)S[C@H]2[C@H](NC(=O)C(C(=O)Oc3ccc4c(c3)CCC4)c3ccccc3)C(=O)N2[C@@H]1C(=O)O (stereo partly drawn) | inactive: -1.15 | inactive: -0.152 | inactive: 0.672
O=C(CN1C(=O)C2(CCCC2)NC[C@H]1c1cc(F)cc(F)c1)Nc1ccc2c(c1)C[C@@]1(C2)C(=O)Nc2ncccc21 | inactive: 0.705 | inactive: -0.599 | inactive: 0.927
COc1ccccc1C(=O)N1CCC(N2Cc3ccccc3C2=O)CC1 | inactive: 1.57 |  | inactive: 0.43
Nc1nc(-c2nn(Cc3ccccc3F)c3ncccc23)nc(N)c1N1CCOCC1 | inactive: -1.35 | inactive: -0.307 | inactive: 1.61
C[C@]12C=CC(=O)C=C1[C@@H](F)C[C@@H]1[C@@H]2[C@@H](O)C[C@@]2(C)[C@H]1CC[C@]2(O)C(=O)CO | inactive: 3.66 | inactive: 0.355 | inactive: 3.41
Cc1ncc(NC(=O)c2ccc(CN3CCN(C)CC3)c(C(F)(F)F)c2)cc1Nc1nccc(-c2cccnc2)n1 [Flumatinib mesylate] | inactive: -1.73 | inactive: -1.25 | inactive: -1.08
O=C(NCC1CC1)C1CCCN(c2nc3ncccc3o2)C1 (stereo not drawn) | inactive: 0.881 |  | inactive: -0.767
CC[C@H](C)[C@@H]1NC(=O)[C@H](Cc2ccc(O)cc2)NC(=O)[C@@H](N)CSSC[C@@H](C(=O)N2CCC[C@H]2C(=O)N[C@@H](CC(C)C)C(=O)NCC(N)=O)NC(=O)[C@H](CC(N)=O)NC(=O)[C@H]([C@@H](C)O)NC1=O | inactive: -0.95 | inactive: -0.614 | inactive: -1.9
CN(C)CC/C=C1\c2ccccc2COc2ccccc21 [cidoxepin] |  | inactive: 0.96 | 
CN(C)CC/C=C1\c2ccccc2COc2ccccc21 | inactive: 0.994 |  | inactive: 0.52
CN(C)CCCN1c2ccccc2Sc2ccc(Cl)cc21 [Chlorpromazine] |  | inactive: -0.2 | 
CN(C)CCCN1c2ccccc2Sc2ccc(Cl)cc21 [Chlorpromazine69-09-0] | inactive: 1.06 |  | inactive: 1.22
CC(=O)/N=c1\sc(S(N)(=O)=O)nn1C [Methazolamide] | inactive: -2.16 | inactive: 0.512 | inactive: 0.949
N#Cc1cccc(CN2CCCCC23Cc2ccccc2CNC3=O)c1 (stereo not drawn) | inactive: -1.31 |  | inactive: 2.1
CCOC(=O)Cn1cccc1-c1nc(-c2ccc(OC)cc2)c(-c2ccc(OC)cc2)s1 | inactive: -1.08 | inactive: -0.794 | inactive: 0.103
CCc1oc2ccccc2c1C(=O)c1cc(Br)c(O)c(Br)c1 | inactive: -1.14 |  | inactive: -0.975
CCc1oc2ccccc2c1C(=O)c1cc(Br)c(O)c(Br)c1 [benzbromarone] |  | inactive: 0.671 | 
Nc1nccc2c1ncn2[C@@H]1C=C(CO)[C@@H](O)[C@H]1O | inactive: -0.581 | inactive: 2.25 | inactive: 2.59
COc1ccc2nc(NC(=O)Nc3ccccc3)sc2c1 [Frentizol] | inactive: 2.35 | inactive: -1.22 | inactive: -0.0107

— the supplement of paper PMC10735217
